# Results as given in the supplement of paper PMC8728848.
# Some of the results follow.
# B1: CD4 (Rattus norvegicus), P05540 (protein)
# chain: MCRGFSFRHLLPLLLLQLSKLLVVTQGSTSITAYKSEGESAEFSFPLNLGEESLQGELRWKAEKAPSSQSWITFSLKNQKVSVQKSTSNPKFQLSETLPLTLQIPQVSLQFAGSGNLTLTLDRGILYQEVNLVVMKVTQPDSNTLTCEVMGPTSPKMRLILKQENQEARVSRQEKVIQVQAPEAGVWQCLLSEGEEVKMDSKIQVLSKGLNSGGGSGGGTGGGDLAPQMLRELQETNAALQDVRELLRQQVKEITFLKNTVMECDACGLDRNLPPLAPLGPHPETLVKVKDAEDQLGARVGYIELDLNSGKILESFRPEERFPMMSTFKVLLCGAVLSRIDAGQEQLGRRIHYSQNDLVEYSPVTEKHLTDGMTVRELCSAAITMSDNTAANLLLTTIGGPKELTAFLHNMGDHVTRLDRWEPELNEAIPNDERDTTMPVAMATTLRKLLTGELLTLASRQQLIDWMEADKVAGPLLRSALPAGWFIADKSGAGERGSRGIIAALGPDGKPSRIVVIYTTGSQATMDERNRQIAEIGASLIKHW
# Assays:
# Experiment in all cases: glycan array binding signal (z-score within array); higher = stronger binding
# Conditions in all cases: glycan notation: IUPAC condensed, linker removed
# [1] = target: Fuc(a1-2)[Gal(a1-3)]Gal(b1-4)GlcNAc(b1-2)Man(a1-3)[Fuc(a1-2)[Gal(a1-3)]Gal(b1-4)GlcNAc(b1-2)Man(a1-6)]Man(b1-4)GlcNAc(b1-4)GlcNAc
# Summary of the method: (§1)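 The binding signal is a Z-score computed within each array and averaged over linkers. Arrays of the same protein sequence at different concentrations or buffers were also averaged together. Data originate from 3228 arrays in the Consortium for Functional Glycomics database, kept only where the protein sequence was available.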
# [2] = target: Fuc(a1-2)[Gal(a1-3)]Gal(b1-4)GlcNAc(b1-2)Man(a1-3)[Fuc(a1-2)[Gal(a1-3)]Gal(b1-4)GlcNAc(b1-2)Man(a1-6)]Man(b1-4)GlcNAc(b1-4)[Fuc(a1-6)]GlcNAc
# Summary of the method: as §1
# [3] = target: Fuc(a1-2)[Gal(a1-3)]Gal(b1-4)GlcNAc(b1-3)GalNAc
# Summary of the method: as §1
# [4] = target: Fuc(a1-2)[Gal(a1-3)]Gal(b1-4)GlcNAc(b1-6)GalNAc
# Summary of the method: as §1
# [5] = target: Fuc(a1-2)[Gal(a1-3)]Gal(b1-4)[Fuc(a1-3)]Glc
# Summary of the method: as §1
# [6] = target: Fuc(a1-2)[Gal(a1-3)]Gal(b1-4)[Fuc(a1-3)]GlcNAc
# Summary of the method: as §1
# [7] = target: Fuc(a1-2)[Gal(a1-3)]Gal(b1-4)[Fuc(a1-3)]GlcNAc(b1-3)GalNAc
# Summary of the method: as §1
# [8] = target: Fuc(a1-2)[Gal(a1-4)]Gal(b1-4)GlcNAc
# Summary of the method: as §1
# [9] = target: Fuc(a1-2)[GalNAc(a1-3)]Gal
# Summary of the method: as §1
# [10] = target: Fuc(a1-2)[GalNAc(a1-3)]Gal(b1-3)GalNAc(a1-3)[Fuc(a1-2)]Gal(b1-4)GlcNAc
# Summary of the method: as §1
# [11] = target: Fuc(a1-2)[GalNAc(a1-3)]Gal(b1-3)GalNAc(b1-3)Gal(a1-4)Gal(b1-4)Glc
# Summary of the method: as §1
# [12] = target: Fuc(a1-2)[GalNAc(a1-3)]Gal(b1-3)GlcNAc
# Summary of the method: as §1
# [13] = target: Fuc(a1-2)[GalNAc(a1-3)]Gal(b1-3)GlcNAc(b1-2)Man(a1-3)[Fuc(a1-2)[GalNAc(a1-3)]Gal(b1-3)GlcNAc(b1-2)Man(a1-6)]Man(b1-4)GlcNAc(b1-4)GlcNAc
# Summary of the method: as §1
# [14] = target: Fuc(a1-2)[GalNAc(a1-3)]Gal(b1-3)GlcNAc(b1-2)Man(a1-3)[Fuc(a1-2)[GalNAc(a1-3)]Gal(b1-3)GlcNAc(b1-2)Man(a1-6)]Man(b1-4)GlcNAc(b1-4)[Fuc(a1-6)]GlcNAc
# Summary of the method: as §1
# [15] = target: Fuc(a1-2)[GalNAc(a1-3)]Gal(b1-3)GlcNAc(b1-3)GalNAc
# Summary of the method: as §1
# [16] = target: Fuc(a1-2)[GalNAc(a1-3)]Gal(b1-3)GlcNAc(b1-6)GalNAc
# Summary of the method: as §1
# [17] = target: Fuc(a1-2)[GalNAc(a1-3)]Gal(b1-4)Glc
# Summary of the method: as §1
# [18] = target: Fuc(a1-2)[GalNAc(a1-3)]Gal(b1-4)GlcNAc
# Summary of the method: as §1
# [19] = target: Fuc(a1-2)[GalNAc(a1-3)]Gal(b1-4)GlcNAc(b1-2)Man
# Summary of the method: as §1
# [20] = target: Fuc(a1-2)[GalNAc(a1-3)]Gal(b1-4)GlcNAc(b1-2)Man(a1-3)[Fuc(a1-2)[GalNAc(a1-3)]Gal(b1-4)GlcNAc(b1-2)Man(a1-6)]Man(b1-4)GlcNAc(b1-4)GlcNAc
# Summary of the method: as §1
# [21] = target: Fuc(a1-2)[GalNAc(a1-3)]Gal(b1-4)GlcNAc(b1-2)Man(a1-3)[Fuc(a1-2)[GalNAc(a1-3)]Gal(b1-4)GlcNAc(b1-2)Man(a1-6)]Man(b1-4)GlcNAc(b1-4)[Fuc(a1-6)]GlcNAc
# Summary of the method: as §1
# [22] = target: Fuc(a1-2)[GalNAc(a1-3)]Gal(b1-4)GlcNAc(b1-3)Gal(b1-4)GlcNAc
# Summary of the method: as §1
# [23] = target: Fuc(a1-2)[GalNAc(a1-3)]Gal(b1-4)GlcNAc(b1-3)Gal(b1-4)GlcNAc(b1-3)Gal(b1-4)GlcNAc
# Summary of the method: as §1
# [24] = target: Fuc(a1-2)[GalNAc(a1-3)]Gal(b1-4)GlcNAc(b1-3)GalNAc
# Summary of the method: as §1
# [25] = target: Fuc(a1-2)[GalNAc(a1-3)]Gal(b1-4)GlcNAc(b1-3)[Fuc(a1-2)[GalNAc(a1-3)]Gal(b1-4)GlcNAc(b1-6)]GalNAc
# Summary of the method: as §1
# [26] = target: Fuc(a1-2)[GalNAc(a1-3)]Gal(b1-4)GlcNAc(b1-6)GalNAc
# Summary of the method: as §1
# [27] = target: Fuc(a1-2)[GalNAc(a1-3)]Gal(b1-4)[Fuc(a1-3)]GlcNAc
# Summary of the method: as §1
# [28] = target: Fuc(a1-2)[GalNAc(a1-3)]Gal(b1-4)[Fuc(a1-3)]GlcNAc(b1-3)GalNAc
# Summary of the method: as §1
# [29] = target: Fuc(a1-2)[GalNAc(a1-4)]Gal(b1-4)GlcNAc
# Summary of the method: as §1
# [30] = target: Fuc(a1-2)[GalNAc(b1-3)]Gal
# Summary of the method: as §1
binder,measurement,setting,value
B1,glycan array binding signal (z-score),[1],1.57
same,glycan array binding signal (z-score),[2],1.22
same,glycan array binding signal (z-score),[3],-0.617
same,glycan array binding signal (z-score),[4],0.27
same,glycan array binding signal (z-score),[5],0.448
same,glycan array binding signal (z-score),[6],2.36
same,glycan array binding signal (z-score),[7],-0.228
same,glycan array binding signal (z-score),[8],1.9
same,glycan array binding signal (z-score),[9],-0.738
same,glycan array binding signal (z-score),[10],-0.508
same,glycan array binding signal (z-score),[11],-1.25
same,glycan array binding signal (z-score),[12],-0.217
same,glycan array binding signal (z-score),[13],1.82
same,glycan array binding signal (z-score),[14],-0.564
same,glycan array binding signal (z-score),[15],2.41
same,glycan array binding signal (z-score),[16],0.082
same,glycan array binding signal (z-score),[17],0.566
same,glycan array binding signal (z-score),[18],-0.98
same,glycan array binding signal (z-score),[19],-0.121
same,glycan array binding signal (z-score),[20],0.34
same,glycan array binding signal (z-score),[21],-0.059
same,glycan array binding signal (z-score),[22],-0.594
same,glycan array binding signal (z-score),[23],3.72
same,glycan array binding signal (z-score),[24],-0.665
same,glycan array binding signal (z-score),[25],-0.902
same,glycan array binding signal (z-score),[26],0.037
same,glycan array binding signal (z-score),[27],2.67
same,glycan array binding signal (z-score),[28],1
same,glycan array binding signal (z-score),[29],-1.04
same,glycan array binding signal (z-score),[30],1.89

# Nothing new here: entries from further up.
binder,measurement,setting,value
B1,glycan array binding signal (z-score),[3],-0.617
same,glycan array binding signal (z-score),[4],0.27
